Source: the supplement of paper PMC3334620
In all, about 33,000 sequences were measured (“E-score (-0.5 to 0.5)”: median about -0.0059, highest 2% from about 0.26 on). The list shows a part of the results.

What follows are sequences tested against T1, Cin5 (UniProt P40917) (assay: PBM E-score (8-mer binding enrichment) (E-score (-0.5 to 0.5)); higher = stronger / more preferred TF binding). Conditions: protein concentration: 100 nM; construct: GST-full length.
T1 sequence: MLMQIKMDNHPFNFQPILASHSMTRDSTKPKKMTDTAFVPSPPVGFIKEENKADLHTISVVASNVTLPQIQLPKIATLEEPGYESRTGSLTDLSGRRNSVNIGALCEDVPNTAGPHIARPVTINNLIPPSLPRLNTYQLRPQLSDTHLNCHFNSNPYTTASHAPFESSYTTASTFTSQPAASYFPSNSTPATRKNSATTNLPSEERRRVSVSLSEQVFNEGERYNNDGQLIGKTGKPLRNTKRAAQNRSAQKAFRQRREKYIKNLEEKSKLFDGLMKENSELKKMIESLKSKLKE
Method in brief: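 For each ungapped eight-base word taken together with its reverse complement, the Universal PBM Analysis Suite assigned an E-score. Binding data came from GST-tagged yeast transcription factors, applied at about 100-200 nM, on universal all-10-mer Agilent arrays made double-stranded by primer extension. Fluorescent anti-GST marked bound protein, and scans were normalised with masliner.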

Sequence	PBM E-score
AGAGAACA	0.118
ACATAGCC	0.191
AGCCGACC	-0.252
CATTAGCC	0.0429
CCACTGAA	0.121
CGTTGAAA	-0.0492
GCGTAAAA	0.121
ATGCGATG	-0.0493
GCTCTCTA	-0.158
ACGAGATG	0.0151
TCACCAAA	0.177
CTTTTAGC	-0.0723
GGATGATA	0.176
AACTCTAA	0.0833
CTGGCCAG	-0.0982
CTCTAAAC	0.0208
GCGAGCAA	0.0907
CGCAAATC	0.0229
CGACTGTC	-0.116
CGCCGCAC	-0.168
AAGCCTGT	0.053
CTGCCACA	-0.139
CGCGCCCG	-0.196
ACGCTCAA	0.0916
AGCACAAG	-0.189

Sequence	PBM E-score
AGATCCGA	-0.0473
ATTTCCGC	0.162
CGAGAGCA	0.0311
AGACCGGA	-0.18
ATCCCCTA	0.0975
AATTTCCC	0.108
CTTGAAAA	0.0761
AACCGGTC	-0.0963
CAGGCTAA	-0.0999
CGAAAACA	0.0113
GTTACCTA	0.131
TGCATACA	0.212
CGGTACTA	-0.148
GTAGTCTA	-0.0101
CTACTAAG	0.144
TAAATTGA	0.198
ATCCCGAA	0.215
AATGTTCT	-0.0398
AGAGCATG	-0.157
AGTAAACT	0.174
AAATAGGT	0.0939
AGCGCGTA	0.169
GCGGACGA	-0.0492
ACCTGAAG	-0.0798
AAGTCATG	0.148

Sequence	PBM E-score
AAATGAGA	0.128
CACTGAGA	-0.149
ACACATTC	0.0349
CGGCAGAG	-0.302
AATCGTTG	0.178
AGAGGGAA	-0.327
CCGCAACC	0.00116
AACCGGGT	-0.0685
ACACAGAA	0.0946
CAGGTCAG	0.0249
GCAGGTCA	-0.0653
AAGCAGCC	0.0577
GGAAACGA	0.0835
AATGCCAT	0.142
AACCGGTT	0.105
TCCGCCGA	-0.0241
AGAATTAA	-0.0547
ACGCTCTC	-0.12
TCATATGA	0.272
GGTATCTA	0.0109
CTAACGTA	0.169
GTAATTAA	0.13
AGAGTGAC	-0.142
CGTTGAGA	0.0252
AGGCTTTC	0.0432

Sequence	PBM E-score
ACAACTTG	0.0528
ACTATTGG	-0.0556
CTATGTCA	-0.053
CCTAATGA	-0.00784
ACCCTTGC	-0.17
ACACCACA	0.0779
ACGGCAAC	-0.0668
GATTATGC	0.172
GATATAAA	0.0539
CCCGAGCG	-0.0798
AAGAACCT	-0.00163
ATGGAATG	0.0923
AACGCACC	-0.0357
ACTGTATC	-0.119
ATCTTCGC	0.0925
AAAAGGGG	-0.269
GGAAATAA	0.24
ATACAGTC	-0.142
CGCCATCA	-0.202
GGGGTGTA	-0.208
CGGGTTAA	0.0216
CATGACGG	0.0087
AGCACCTA	-0.147
CATTACAG	0.074
AGGCATAG	-0.135

Sequence	PBM E-score
CCCCGGCA	-0.118
ATAGGTGC	0.0881
TCGTAGAA	-0.0789
CGAGATAA	0.255
ATAGCGTG	0.00691
ATTGATTC	0.128
ACACATGA	0.0642
ACCGTCTG	-0.246
TCAACTGA	0.0795
AAATGGTG	0.0995
AGGATAGC	-0.064
AACAGAAC	0.0567
AGGCTCTG	-0.194
TAGAAGGA	-0.321
CACCTTAC	0.035
CCGGGCCG	-0.221
TATCCAGA	-0.0243
ATGGGTGA	-0.0864
CCGACACG	-0.177
CTCTCTAC	0.0268
GGGCACCA	-0.267
CGGTCGCA	-0.24
GTTCCACA	-0.0911
CACGCCGA	0.00016
ATACGTAA	0.386

Sequence	PBM E-score
CCAACCAG	-0.184
CGCAGGCA	-0.149
CAAATGGG	0.0286
GGAGCCAC	-0.201
ACTATTAT	0.137
CCGCTGCG	-0.073
ACTGGTTC	-0.0164
ATCGAGCA	0.0127
ATGGTCTC	-0.00291
AATAGATA	0.269
GTCACGTA	-0.124
CTCGCGAG	0.0707
AATGTTGT	0.124
CGTCACGA	-0.0379
CTCTCCCC	-0.26
CGGCTACA	-0.132
GCTTTTCA	-0.00236
AGGCACTC	-0.2
AATCCGGG	0.0445
ACCCTGTC	-0.154
AGTAAGTA	0.227
CGGTCCCA	-0.214
CCGGCGAA	0.123
AATGTAAT	0.301
AGAACGCC	-0.116

Sequence	PBM E-score
CCGCGTCC	-0.014
GATTAACC	-0.142
AATGCAAA	0.275
GGCATGAA	-0.00857
ACACCCTG	-0.142
AATTCTCG	0.1
CCCCCGTC	-0.435
GGACGTCA	0.0529
GGCATCTA	-0.0103
ATTCTTAG	-0.0605
ACAAACTA	0.141
GCTACTCC	-0.0765
CTGTAAAA	-0.0113
ACAGTATA	0.17
GATCTGGA	-0.125
AGCTCGAT	0.116
GAAGCTAA	-0.0121
GCTATCAA	0.0779
AGGTTATG	0.154
AACAAATC	0.161
TGTCTCAA	-0.033
GTCTACCA	-0.154

Single values from above.
For PBM E-score, ATTCTTAG is listed with -0.0605
For PBM E-score, AACAAATC is listed with 0.161
For PBM E-score, AATGCAAA is listed with 0.275
For PBM E-score, CCCCCGTC is listed with -0.435
For PBM E-score, CTGTAAAA is listed with -0.0113
For PBM E-score, AATTCTCG is listed with 0.1
For PBM E-score, GCTATCAA is listed with 0.0779
